# Measurements as given in patent US4481192A (SANOFI, priority 1982, dated 1984).
# Experiment: general procedure: solution-phase peptide synthesis; active esters (ONSu, ONp, OTcp) with HOBt/NEM; DCCI/HONSu; Bop/DIPEA
# Details: coupling step
row,Substance,step yield [%]
1,Adoc--Phe--Phe--Sta--Ala--Sta--OMe,58
2,Adoc--Phe--Trp--Sta--Ala--Sta--OMe,65
3,Boc--His(Boc)--Phe--Sta--Ala--Sta--OMe,60
4,Boc--Nle--Sta--Ala--Sta--OMe,90
5,Boc--Nva--Sta--Ala--Sta--OMe,51
6,Boc-F[Sta]A[Sta]-OMe,70
7,Boc-H[Sta]A[Sta]-OMe,53
8,Boc-I[Sta]A[Sta]-OMe,56
9,Boc-L[Sta]A[Sta]-OMe,38
10,Boc-P[Sta]A[Sta]-OMe,85
11,Boc-V[Sta]A[Sta]-OMe,38
12,Boc-W[Sta]A[Sta]-OMe,56
13,Boc-W[dW][Sta]A[Sta]-OMe,85
14,Boc-[dF][Sta]A[Sta]-OMe,37
15,Boc-[dV][Sta]A[Sta]-OMe,40
16,Boc-[dW]W[Sta]A[Sta]-OMe,42
17,Boc-[dW][Sta]A[Sta]-OMe,58
18,Cbz-FF[Sta]A[Sta]-OMe,69
19,Cbz-FP[Sta]A[Sta]-OMe,54
20,Cbz-FV[Sta]A[Sta]-OMe,81
21,Cbz-F[dV][Sta]A[Sta]-OMe,29
22,Cbz-F[dW][Sta]A[Sta]-OMe,51

row,Substance,step yield [%]
1,Cbz-YV[Sta]A[Sta]-OMe,85
2,Cbz-YY[Sta]A[Sta]-OMe,71
3,Cbz-Y[Sta]A[Sta]-OMe,75
4,PEPTIDE1{[Boc].F.F.[Sta].A.[Sta].[OMe]}$$$$V2.0,65
5,PEPTIDE1{[Boc].F.H.[Sta].A.[Sta].[OMe]}$$$$V2.0,45
6,PEPTIDE1{[Boc].I.H.[Sta].A.[Sta].[OMe]}$$$$V2.0,24
7,PEPTIDE1{[Boc].W.W.[Sta].A.[Sta].[OMe]}$$$$V2.0,44
8,PEPTIDE1{[Boc].[dF].F.[Sta].A.[Sta].[OMe]}$$$$V2.0,82
9,PEPTIDE1{[Boc].[dF].V.[Sta].A.[Sta].[OMe]}$$$$V2.0,85
10,PEPTIDE1{[PhPr].F.F.[Sta].A.[Sta].[OMe]}$$$$V2.0,71
11,PEPTIDE1{[PhSO2].F.F.[Sta].A.[Sta].[OMe]}$$$$V2.0,34.5
12,PEPTIDE1{[ac].F.[Nva].[Sta].A.[Sta].[OMe]}$$$$V2.0,63
13,PEPTIDE1{[iVa].F.A.[Sta].A.[Sta].[OMe]}$$$$V2.0,88
14,PEPTIDE1{[iVa].F.F.[Sta].A.[Sta].[OMe]}$$$$V2.0,73
15,PEPTIDE1{[iVa].F.G.[Sta].A.[Sta].[OMe]}$$$$V2.0,42
16,PEPTIDE1{[iVa].F.L.[Sta].A.[Sta].[OMe]}$$$$V2.0,55
17,PEPTIDE1{[iVa].F.[Lys(Z)].[Sta].A.[Sta].[OMe]}$$$$V2.0,87
18,PEPTIDE1{[tBuAc].F.F.[Sta].A.[Sta].[OMe]}$$$$V2.0,72
19,Z Phe--Trp--Sta--Ala--Sta--OMe,92
20,Z--Phe--ILe--Sta--Ala--Sta--OMe,86
21,iVa--Phe--Nle--Sta--Ala--Sta--OMe,73
22,iVa--Phe--Phe--Sta--Ala--Sta--NH2,58

# Same assay, conditions: late stage modification step
row,Substance,step yield [%]
1,Boc-FF[Sta]A[Sta]-OH,87
2,H--Leu--Sta--Ala--Sta--OMe.TFA,100
3,H--Nva--Sta--Ala--Sta--OMe.TFA,100
4,H-P[Sta]A[Sta]-OMe,100
5,H-V[Sta]A[Sta]-OMe,100
6,H-Y[Sta]A[Sta]-OMe,96

# Same assay, conditions: late stage modification step, 2TFA salt
row,Substance,step yield [%]
1,H--His--Sta--Ala--Sta--OMe.2TFA,91

# Same assay, conditions: late stage modification step, TFA salt
row,Substance,step yield [%]
1,H--(D)Phe--Sta--Ala--Sta--OMe.TFA,93
2,H--(D)Trp--Sta--Ala--Sta--OMe.TFA,95
3,H--(D)Val--Sta--Ala--Sta--OMe.TFA,100
4,H--Ile--Sta--Ala--Sta--OMe.TFA,93
5,H--Phe--Sta--Ala--Sta--OMe.TFA,98

# Some peptides are written in HELM: one residue between dots, names in brackets for other building blocks, links after the first $. Non-standard residues stand in square brackets, D forms with d. *: point of attachment. Sta = CC(C)C[C@H](N)[C@@H](O)CC(=O)O; Cbz = O=C(OCc1ccccc1)*; Boc = CC(C)(C)OC(=O)*
